# The list shows a part of the results.
# B1: PX9961W-pdi-543-27-543 (Parabacteroides distasonis) (protein)
# chain: EGNATTTSYFLNDQQAIDAIDGLYERFHQEGCYGRELFWEQGAACDIVWGRTRGYNSLATLAYTGDESPLRDVFSRMYSTMSRANWIIQELVKKEKGTTLTAVEKRSLGEAYFSRGWAHYLIAYRYGTDKQGVPFVRYEDFPDDYDNSIPPQQATVMDNYKLIIEDMDKAIAYLPIFESYDADNRGRAHQAAAVAFKAKTYAYWATWDATQWNNVIEMVNQLENNYNRDLAPTFAELFSSDLKDYWNAEYLWTIPSIGGALPGGTEFPGIILENKGWGKYNGWGQMKPSYDIYEEMAKDGKGNDRLVRSILEYNQEFPFFGETRKFWSTSDLEAGFMINKYMDAFKYSDPVGEGAVSANGDWPTVRVNFPIIRFAEMLLFRAEAYLMTGQADKATADINRIRLRSNLTPLTGTATMKDLYHERRCELAFEFTDHLFDLKRWNRSSNADIKTLADKELNAHPRIRRYEDRANPESAFTIIGYEDYTNKNAYQAHMMVFPYPSEEITKSNGQLKQNEGY
# Tests used:
# Test in all cases: glycan array binding signal (z-score within array); higher = stronger binding
# Settings in all cases: glycan notation: IUPAC condensed, linker removed
# [1] = target: Fuc(a1-3)[Gal3S(b1-4)]GlcNAc6S
# Procedure, shortened: (§1)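 The binding signal is a Z-score computed within each array. Data were drawn from 3228 arrays in the Consortium for Functional Glycomics database, restricted to those with a known protein sequence. Scores were averaged over arrays of the same protein sequence at different concentrations or buffers, and over linkers, and negative values can be taken as non-binding.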
# [2] = target: Fuc(a1-3)[GalNAc(b1-4)]GlcNAc
# Procedure, shortened: as §1
# [3] = target: Fuc(a1-3)[GalNAc(b1-4)]GlcNAc6S
# Procedure, shortened: as §1
# Fuc(a1-4)GlcNAc = target: Fuc(a1-4)GlcNAc
# Procedure, shortened: as §1
# Fuc(b1-3)GlcNAc = target: Fuc(b1-3)GlcNAc
# Procedure, shortened: as §1
# Gal(a1-2)Gal = target: Gal(a1-2)Gal
# Procedure, shortened: as §1
# Gal(a1-3)Gal = target: Gal(a1-3)Gal
# Procedure, shortened: as §1
# Gal(a1-3)Gal(b1-3)GlcNAc = target: Gal(a1-3)Gal(b1-3)GlcNAc
# Procedure, shortened: as §1
# [4] = target: Gal(a1-3)Gal(b1-3)GlcNAc(b1-2)Man
# Procedure, shortened: as §1
# [5] = target: Gal(a1-3)Gal(b1-3)GlcNAc(b1-2)Man(a1-3)[Gal(a1-3)Gal(b1-3)GlcNAc(b1-2)Man(a1-6)]Man(b1-4)GlcNAc(b1-4)GlcNAc
# Procedure, shortened: as §1
# [6] = target: Gal(a1-3)Gal(b1-3)GlcNAc(b1-3)GalNAc
# Procedure, shortened: as §1
# [7] = target: Gal(a1-3)Gal(b1-3)GlcNAc(b1-6)GalNAc
# Procedure, shortened: as §1
# [8] = target: Gal(a1-3)Gal(b1-3)[Fuc(a1-4)]GlcNAc(b1-2)Man(a1-3)[Gal(a1-3)Gal(b1-3)[Fuc(a1-4)]GlcNAc(b1-2)Man(a1-6)]Man(b1-4)GlcNAc(b1-4)GlcNAc
# Procedure, shortened: as §1
# Gal(a1-3)Gal(b1-4)Glc = target: Gal(a1-3)Gal(b1-4)Glc
# Procedure, shortened: as §1
# Gal(a1-3)Gal(b1-4)GlcNAc = target: Gal(a1-3)Gal(b1-4)GlcNAc
# Procedure, shortened: as §1
# [9] = target: Gal(a1-3)Gal(b1-4)GlcNAc(b1-2)Man
# Procedure, shortened: as §1
# [10] = target: Gal(a1-3)Gal(b1-4)GlcNAc(b1-2)Man(a1-3)[Gal(a1-3)Gal(b1-4)GlcNAc(b1-2)Man(a1-6)]Man(b1-4)GlcNAc(b1-4)GlcNAc
# Procedure, shortened: as §1
# [11] = target: Gal(a1-3)Gal(b1-4)GlcNAc(b1-3)GalNAc
# Procedure, shortened: as §1
# [12] = target: Gal(a1-3)Gal(b1-4)GlcNAc(b1-6)GalNAc
# Procedure, shortened: as §1
# [13] = target: Gal(a1-3)Gal(b1-4)[Fuc(a1-3)]GlcNAc
# Procedure, shortened: as §1
# [14] = target: Gal(a1-3)Gal(b1-4)[Fuc(a1-3)]GlcNAc(b1-2)Man(a1-3)[Gal(a1-3)Gal(b1-4)[Fuc(a1-3)]GlcNAc(b1-2)Man(a1-6)]Man(b1-4)GlcNAc(b1-4)GlcNAc
# Procedure, shortened: as §1
# Gal(a1-3)GalNAc = target: Gal(a1-3)GalNAc
# Procedure, shortened: as §1
# [15] = target: Gal(a1-3)[Gal(a1-4)]Gal(b1-4)GlcNAc
# Procedure, shortened: as §1
# [16] = target: Gal(a1-4)Gal(b1-3)GlcNAc(b1-2)Man(a1-3)[Gal(a1-4)Gal(b1-3)GlcNAc(b1-2)Man(a1-6)]Man(b1-4)GlcNAc(b1-4)GlcNAc
# Procedure, shortened: as §1
# Gal(a1-4)Gal(b1-4)Glc = target: Gal(a1-4)Gal(b1-4)Glc
# Procedure, shortened: as §1
# Gal(a1-4)Gal(b1-4)GlcNAc = target: Gal(a1-4)Gal(b1-4)GlcNAc
# Procedure, shortened: as §1
# [17] = target: Gal(a1-4)Gal(b1-4)GlcNAc(b1-2)Man(a1-3)[Gal(a1-4)Gal(b1-4)GlcNAc(b1-2)Man(a1-6)]Man(b1-4)GlcNAc(b1-4)GlcNAc
# Procedure, shortened: as §1
# [18] = target: Gal(a1-4)Gal(b1-4)GlcNAc(b1-3)Gal(b1-4)Glc
# Procedure, shortened: as §1
# Gal(a1-4)GlcNAc = target: Gal(a1-4)GlcNAc
# Procedure, shortened: as §1
# Gal(a1-6)Glc = target: Gal(a1-6)Glc
# Procedure, shortened: as §1
# Gal(b1-2)Gal = target: Gal(b1-2)Gal
# Procedure, shortened: as §1
# Gal(b1-3)Gal = target: Gal(b1-3)Gal
# Procedure, shortened: as §1
# Gal(b1-3)Gal(b1-4)GlcNAc = target: Gal(b1-3)Gal(b1-4)GlcNAc
# Procedure, shortened: as §1
# Gal(b1-3)GalNAc = target: Gal(b1-3)GalNAc
# Procedure, shortened: as §1
# [19] = target: Gal(b1-3)GalNAc(a1-3)[Fuc(a1-2)]Gal(b1-4)Glc
# Procedure, shortened: as §1
# [20] = target: Gal(b1-3)GalNAc(a1-3)[Fuc(a1-2)]Gal(b1-4)GlcNAc
# Procedure, shortened: as §1
# Gal(b1-3)GalNAc(b1-3)Gal = target: Gal(b1-3)GalNAc(b1-3)Gal
# Procedure, shortened: as §1
# [21] = target: Gal(b1-3)GalNAc(b1-3)Gal(a1-4)Gal(b1-4)Glc
# Procedure, shortened: as §1
# [22] = target: Gal(b1-3)GalNAc(b1-4)Gal(b1-4)Glc
# Procedure, shortened: as §1
# [23] = target: Gal(b1-3)GalNAc(b1-4)[Neu5Ac(a2-3)]Gal(b1-4)Glc
# Procedure, shortened: as §1
# Gal(b1-3)GlcNAc = target: Gal(b1-3)GlcNAc
# Procedure, shortened: as §1
# [24] = target: Gal(b1-3)GlcNAc(a1-3)Gal(b1-4)GlcNAc
# Procedure, shortened: as §1
# [25] = target: Gal(b1-3)GlcNAc(a1-6)Gal(b1-4)GlcNAc
# Procedure, shortened: as §1
# Gal(b1-3)GlcNAc(b1-2)Man = target: Gal(b1-3)GlcNAc(b1-2)Man
# Procedure, shortened: as §1
# [26] = target: Gal(b1-3)GlcNAc(b1-2)Man(a1-3)[Gal(b1-3)GlcNAc(b1-2)Man(a1-6)]Man(b1-4)GlcNAc(b1-4)GlcNAc
# Procedure, shortened: as §1
binder,measurement,setting,value
B1,glycan array binding signal (z-score),[1],-0.934
same,glycan array binding signal (z-score),[2],-0.877
same,glycan array binding signal (z-score),[3],0.762
same,glycan array binding signal (z-score),Fuc(a1-4)GlcNAc,-0.806
same,glycan array binding signal (z-score),Fuc(b1-3)GlcNAc,-0.123
same,glycan array binding signal (z-score),Gal(a1-2)Gal,0.391
same,glycan array binding signal (z-score),Gal(a1-3)Gal,-0.512
same,glycan array binding signal (z-score),Gal(a1-3)Gal(b1-3)GlcNAc,-0.356
same,glycan array binding signal (z-score),[4],0.221
same,glycan array binding signal (z-score),[5],1.2
same,glycan array binding signal (z-score),[6],-0.115
same,glycan array binding signal (z-score),[7],-0.936
same,glycan array binding signal (z-score),[8],-0.208
same,glycan array binding signal (z-score),Gal(a1-3)Gal(b1-4)Glc,-0.166
same,glycan array binding signal (z-score),Gal(a1-3)Gal(b1-4)GlcNAc,-0.055
same,glycan array binding signal (z-score),[9],-0.868
same,glycan array binding signal (z-score),[10],0.389
same,glycan array binding signal (z-score),[11],-0.184
same,glycan array binding signal (z-score),[12],0.486
same,glycan array binding signal (z-score),[13],-0.49
same,glycan array binding signal (z-score),[14],1.51
same,glycan array binding signal (z-score),Gal(a1-3)GalNAc,0.176
same,glycan array binding signal (z-score),[15],4.9
same,glycan array binding signal (z-score),[16],-0.69
same,glycan array binding signal (z-score),Gal(a1-4)Gal(b1-4)Glc,-1.26
same,glycan array binding signal (z-score),Gal(a1-4)Gal(b1-4)GlcNAc,-0.299
same,glycan array binding signal (z-score),[17],-0.19
same,glycan array binding signal (z-score),[18],-0.322
same,glycan array binding signal (z-score),Gal(a1-4)GlcNAc,-0.436
same,glycan array binding signal (z-score),Gal(a1-6)Glc,-1.09
same,glycan array binding signal (z-score),Gal(b1-2)Gal,0.17
same,glycan array binding signal (z-score),Gal(b1-3)Gal,-0.761
same,glycan array binding signal (z-score),Gal(b1-3)Gal(b1-4)GlcNAc,-0.037
same,glycan array binding signal (z-score),Gal(b1-3)GalNAc,-0.095
same,glycan array binding signal (z-score),[19],-0.556
same,glycan array binding signal (z-score),[20],0.758
same,glycan array binding signal (z-score),Gal(b1-3)GalNAc(b1-3)Gal,-0.176
same,glycan array binding signal (z-score),[21],-0.883
same,glycan array binding signal (z-score),[22],-0.613
same,glycan array binding signal (z-score),[23],-0.106
same,glycan array binding signal (z-score),Gal(b1-3)GlcNAc,-0.478
same,glycan array binding signal (z-score),[24],-0.65
same,glycan array binding signal (z-score),[25],-0.321
same,glycan array binding signal (z-score),Gal(b1-3)GlcNAc(b1-2)Man,0.063
same,glycan array binding signal (z-score),[26],0.868

# Given with bars between the fields: entries from further up.
binder | measurement | setting | value
B1 | glycan array binding signal (z-score) | Fuc(a1-4)GlcNAc | -0.806
same | glycan array binding signal (z-score) | Fuc(b1-3)GlcNAc | -0.123
same | glycan array binding signal (z-score) | Gal(a1-2)Gal | 0.391
same | glycan array binding signal (z-score) | Gal(a1-3)Gal | -0.512

# From the supplement of paper PMC8728848
